The values that follow come from paper PMC7672476, “Structural basis of Mfd-dependent transcription termination” (Nucleic Acids Research, 2020).

Residue numbers refer to the chain shown, from its start. Construct, isoform or probe ends are uncertain for at least one entry. For some assays here: Weaker means in comparison with the reference protein, sequence or condition of that experiment. Where a protein sequence is shown, tags need not be part of it. For some assays here: At least one verdict rests on a figure or table, not on a statement of the authors.

The target in one data set is T1, Mfd (Escherichia coli) (UniProt P30958).
T1 sequence (looked up, limits assumed): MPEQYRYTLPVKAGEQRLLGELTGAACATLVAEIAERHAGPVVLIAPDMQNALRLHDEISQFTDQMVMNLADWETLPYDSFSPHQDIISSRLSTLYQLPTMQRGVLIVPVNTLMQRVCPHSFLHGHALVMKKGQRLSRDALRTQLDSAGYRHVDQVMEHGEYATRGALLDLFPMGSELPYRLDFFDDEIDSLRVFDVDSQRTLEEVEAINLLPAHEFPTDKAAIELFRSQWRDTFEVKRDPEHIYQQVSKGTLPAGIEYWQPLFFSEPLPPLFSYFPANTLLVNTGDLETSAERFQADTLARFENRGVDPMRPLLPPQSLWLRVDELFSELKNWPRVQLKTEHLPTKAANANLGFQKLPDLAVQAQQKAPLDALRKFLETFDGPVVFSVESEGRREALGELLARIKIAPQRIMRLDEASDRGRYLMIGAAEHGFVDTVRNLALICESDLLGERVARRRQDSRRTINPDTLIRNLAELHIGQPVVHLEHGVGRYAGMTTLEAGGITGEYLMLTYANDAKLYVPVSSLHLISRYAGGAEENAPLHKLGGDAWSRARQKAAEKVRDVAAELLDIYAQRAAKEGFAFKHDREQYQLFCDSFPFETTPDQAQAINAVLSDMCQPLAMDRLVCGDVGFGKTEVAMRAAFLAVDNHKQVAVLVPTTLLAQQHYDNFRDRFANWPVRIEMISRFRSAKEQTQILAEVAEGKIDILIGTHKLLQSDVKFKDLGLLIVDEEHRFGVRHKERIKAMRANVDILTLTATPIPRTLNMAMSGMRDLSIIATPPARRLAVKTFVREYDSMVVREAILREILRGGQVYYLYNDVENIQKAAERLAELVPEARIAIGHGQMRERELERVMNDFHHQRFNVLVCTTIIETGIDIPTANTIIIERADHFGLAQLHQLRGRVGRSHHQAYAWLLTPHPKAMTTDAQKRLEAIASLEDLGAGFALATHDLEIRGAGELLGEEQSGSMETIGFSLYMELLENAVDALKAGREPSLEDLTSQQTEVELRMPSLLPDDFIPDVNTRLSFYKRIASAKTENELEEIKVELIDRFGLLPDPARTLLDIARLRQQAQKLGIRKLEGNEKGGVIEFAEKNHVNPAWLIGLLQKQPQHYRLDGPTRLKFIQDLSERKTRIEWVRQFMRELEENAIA
The data set can be described thus: fluorescence polarization. The conditions noted are these: 2 mM ATPgS, 5 mM Mg2+; FP: 10 mM HEPES pH 7.5, 50 mM KCl, 5 mM MgCl2, 2 mM ATPgS, 0.1 uM DNA, 0-16 uM Mfd, 10 min at 25 C; recombinant protein; protein details: N-His6; label: 5' 6-FAM on strand 1. On the technique in general: Polarisation of emitted light reports the rotation of a fluorescent probe.

Data set [1] has as its target T2, Mfd K739A (Escherichia coli) (UniProt P30958).
T2 sequence (looked up, limits assumed): T1 sequence (looked up, limits assumed) with K739A
The data set can be described thus: fluorescence polarization. The conditions noted are these: 2 mM ATPgS, 5 mM Mg2+; FP: 10 mM HEPES pH 7.5, 50 mM KCl, 5 mM MgCl2, 2 mM ATPgS, 0.1 uM DNA, 0-16 uM Mfd, 10 min at 25 C; recombinant protein; protein details: N-His6; label: 5' 6-FAM on strand 1.

With “AGCAAAGCTTCTTT (double strand) [6-FAM 14 bp DNA]”, the binding result with Mfd (Escherichia coli) is listed as “binds”; in data set [1] it was “binds more weakly”.
